PubChem BioAssay AID743121 – NCATS – 2013
The whole screen tested about 26,000 reagents; shown is an unselected part. 167 of all reagents (0.63%) were called active. 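Calls are per gene from RSA p-values that are not deposited; an individual active-marked siRNA can sensitise only weakly.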 No sequences are given here.

Screen: 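Genes whose silencing strengthens cell killing by camptothecin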 (primary screen)
Cells: MDA-MB-231 cells, a human breast cancer line
Reagents: single siRNA against human genes, 20 nM siRNA (0.8 pmol per well)
Duration: 120 h (drug added 48 h after transfection, read 72 h later)
Treatment: camptothecin 20 nM (about EC30) for 72 h; vehicle 0.1% DMSO in parallel plates
Read-out: 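Cell viability by ATP luminescence (CellTiter-Glo) as % of non-targeting siRNA wells, and the log2 ratio of viability without drug over viability with camptothecin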
Reading the numbers: log2 vehicle/camptothecin viability: higher = stronger sensitisation to camptothecin; viability with camptothecin and viability without drug: higher = more viable cells
Rule for the call: 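Active genes have an RSA gene-level p-value below 0.001, computed from the ratios of their separate siRNAs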

gene	PubChem SID	log2 vehicle/camptothecin viability	viability with camptothecin (% of control)	viability without drug (% of control)	outcome
PTPRA	SID164383927	-0.549	71.6	48.9	inactive
PTPRA	SID164383928	-0.398	119	90.2	inactive
PTPRA	SID164383929	-0.237	71.7	60.8	inactive
PTPRA	SID164383931	-0.233	91.4	77.8	inactive
SETDB1	SID164406987	-0.0133	104	103	inactive
SETDB1	SID164406988	-0.234	129	110	inactive
SETDB1	SID164406989	-0.254	87.5	73.4	inactive
SETDB1	SID164406994	0.0973	95.2	102	inactive
LRP12	SID164468814	-0.111	112	104	inactive
LRP12	SID164468815	-0.146	127	115	inactive
LRP12	SID164468817	-0.0975	89.5	83.7	inactive
LRP12	SID164468818	-0.249	126	106	inactive
SPRYD3	SID164547394	-0.172	56.2	49.9	inactive
SPRYD3	SID164547395	-0.0955	59.1	55.3	inactive
SPRYD3	SID164547398	0.265	71.4	85.7	inactive
SPRYD3	SID164547399	0.309	89.1	110	inactive
AP1S1	SID164358608	-0.349	84.8	66.6	inactive
AP1S1	SID164358610	-0.114	88.6	81.9	inactive
AP1S1	SID164358612	-0.0854	61.3	57.7	inactive
AP1S1	SID164358616	0.0654	77.4	80.9	inactive
TAC3	SID164390613	-0.0371	66.8	65.1	inactive
TAC3	SID164390614	0.526	65.5	94.4	inactive
TAC3	SID164390615	-0.257	101	84.5	inactive
TAC3	SID164390616	0.915	26.5	50	inactive
RTEL1	SID164475309	-0.259	89.9	75.1	inactive
RTEL1	SID164475313	0.13	68.5	74.9	inactive
RTEL1	SID164475314	-0.146	84.7	76.6	inactive
RTEL1	SID164475316	-0.466	24.3	17.6	inactive

2 consecutive records from above, quoted:
gene	PubChem SID	log2 vehicle/camptothecin viability	viability with camptothecin (% of control)	viability without drug (% of control)	outcome
AP1S1	SID164358616	0.0654	77.4	80.9	inactive
TAC3	SID164390613	-0.0371	66.8	65.1	inactive
